Experimental data: the supplement of paper PMC10849652
The other results are listed elsewhere or left out.

The chains behind the UniProt entries cited, without tags or fusion partners. Where a name states a change or a piece, a line headed by the entry shows the natural chain unless it says otherwise.
UniProt Q9BSU3: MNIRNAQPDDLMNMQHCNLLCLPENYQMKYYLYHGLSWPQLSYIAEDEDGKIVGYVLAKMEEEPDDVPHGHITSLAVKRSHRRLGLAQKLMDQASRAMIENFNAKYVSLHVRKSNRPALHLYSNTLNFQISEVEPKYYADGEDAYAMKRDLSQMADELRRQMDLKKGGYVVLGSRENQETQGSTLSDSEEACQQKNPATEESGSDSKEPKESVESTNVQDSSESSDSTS
UniProt Q6NZ67, whole entry, looked up: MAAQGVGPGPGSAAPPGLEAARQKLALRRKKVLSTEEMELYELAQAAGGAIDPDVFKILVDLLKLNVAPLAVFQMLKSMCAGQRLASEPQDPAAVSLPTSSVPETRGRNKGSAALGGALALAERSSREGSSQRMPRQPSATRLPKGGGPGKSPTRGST
UniProt Q6N069: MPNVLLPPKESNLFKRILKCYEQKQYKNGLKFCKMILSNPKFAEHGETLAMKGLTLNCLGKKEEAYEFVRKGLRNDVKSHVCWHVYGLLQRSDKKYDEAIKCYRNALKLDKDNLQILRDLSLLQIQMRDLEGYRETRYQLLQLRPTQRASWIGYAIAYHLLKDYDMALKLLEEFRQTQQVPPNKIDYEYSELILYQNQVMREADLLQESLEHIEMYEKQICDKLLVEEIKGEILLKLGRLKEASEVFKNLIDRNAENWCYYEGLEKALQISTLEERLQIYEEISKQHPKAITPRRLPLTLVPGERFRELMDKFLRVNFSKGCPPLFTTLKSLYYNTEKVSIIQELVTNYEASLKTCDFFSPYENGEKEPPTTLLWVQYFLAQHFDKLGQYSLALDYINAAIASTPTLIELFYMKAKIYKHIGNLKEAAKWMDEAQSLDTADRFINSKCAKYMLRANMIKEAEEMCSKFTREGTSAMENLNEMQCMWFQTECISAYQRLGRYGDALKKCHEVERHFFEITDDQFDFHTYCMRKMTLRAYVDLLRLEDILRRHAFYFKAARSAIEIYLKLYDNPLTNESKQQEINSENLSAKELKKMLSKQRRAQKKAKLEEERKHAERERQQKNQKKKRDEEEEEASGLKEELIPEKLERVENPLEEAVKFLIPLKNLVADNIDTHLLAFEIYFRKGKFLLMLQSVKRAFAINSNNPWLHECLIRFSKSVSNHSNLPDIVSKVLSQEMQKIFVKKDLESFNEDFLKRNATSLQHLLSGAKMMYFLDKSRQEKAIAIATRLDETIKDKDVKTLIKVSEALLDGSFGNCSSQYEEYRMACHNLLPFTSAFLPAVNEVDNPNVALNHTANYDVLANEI
UniProt G3V1V0: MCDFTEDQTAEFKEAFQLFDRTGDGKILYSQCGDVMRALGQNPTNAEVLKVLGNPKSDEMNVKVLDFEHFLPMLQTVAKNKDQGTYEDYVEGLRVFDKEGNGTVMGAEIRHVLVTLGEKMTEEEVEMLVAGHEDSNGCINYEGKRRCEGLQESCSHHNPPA
UniProt B2RTY4: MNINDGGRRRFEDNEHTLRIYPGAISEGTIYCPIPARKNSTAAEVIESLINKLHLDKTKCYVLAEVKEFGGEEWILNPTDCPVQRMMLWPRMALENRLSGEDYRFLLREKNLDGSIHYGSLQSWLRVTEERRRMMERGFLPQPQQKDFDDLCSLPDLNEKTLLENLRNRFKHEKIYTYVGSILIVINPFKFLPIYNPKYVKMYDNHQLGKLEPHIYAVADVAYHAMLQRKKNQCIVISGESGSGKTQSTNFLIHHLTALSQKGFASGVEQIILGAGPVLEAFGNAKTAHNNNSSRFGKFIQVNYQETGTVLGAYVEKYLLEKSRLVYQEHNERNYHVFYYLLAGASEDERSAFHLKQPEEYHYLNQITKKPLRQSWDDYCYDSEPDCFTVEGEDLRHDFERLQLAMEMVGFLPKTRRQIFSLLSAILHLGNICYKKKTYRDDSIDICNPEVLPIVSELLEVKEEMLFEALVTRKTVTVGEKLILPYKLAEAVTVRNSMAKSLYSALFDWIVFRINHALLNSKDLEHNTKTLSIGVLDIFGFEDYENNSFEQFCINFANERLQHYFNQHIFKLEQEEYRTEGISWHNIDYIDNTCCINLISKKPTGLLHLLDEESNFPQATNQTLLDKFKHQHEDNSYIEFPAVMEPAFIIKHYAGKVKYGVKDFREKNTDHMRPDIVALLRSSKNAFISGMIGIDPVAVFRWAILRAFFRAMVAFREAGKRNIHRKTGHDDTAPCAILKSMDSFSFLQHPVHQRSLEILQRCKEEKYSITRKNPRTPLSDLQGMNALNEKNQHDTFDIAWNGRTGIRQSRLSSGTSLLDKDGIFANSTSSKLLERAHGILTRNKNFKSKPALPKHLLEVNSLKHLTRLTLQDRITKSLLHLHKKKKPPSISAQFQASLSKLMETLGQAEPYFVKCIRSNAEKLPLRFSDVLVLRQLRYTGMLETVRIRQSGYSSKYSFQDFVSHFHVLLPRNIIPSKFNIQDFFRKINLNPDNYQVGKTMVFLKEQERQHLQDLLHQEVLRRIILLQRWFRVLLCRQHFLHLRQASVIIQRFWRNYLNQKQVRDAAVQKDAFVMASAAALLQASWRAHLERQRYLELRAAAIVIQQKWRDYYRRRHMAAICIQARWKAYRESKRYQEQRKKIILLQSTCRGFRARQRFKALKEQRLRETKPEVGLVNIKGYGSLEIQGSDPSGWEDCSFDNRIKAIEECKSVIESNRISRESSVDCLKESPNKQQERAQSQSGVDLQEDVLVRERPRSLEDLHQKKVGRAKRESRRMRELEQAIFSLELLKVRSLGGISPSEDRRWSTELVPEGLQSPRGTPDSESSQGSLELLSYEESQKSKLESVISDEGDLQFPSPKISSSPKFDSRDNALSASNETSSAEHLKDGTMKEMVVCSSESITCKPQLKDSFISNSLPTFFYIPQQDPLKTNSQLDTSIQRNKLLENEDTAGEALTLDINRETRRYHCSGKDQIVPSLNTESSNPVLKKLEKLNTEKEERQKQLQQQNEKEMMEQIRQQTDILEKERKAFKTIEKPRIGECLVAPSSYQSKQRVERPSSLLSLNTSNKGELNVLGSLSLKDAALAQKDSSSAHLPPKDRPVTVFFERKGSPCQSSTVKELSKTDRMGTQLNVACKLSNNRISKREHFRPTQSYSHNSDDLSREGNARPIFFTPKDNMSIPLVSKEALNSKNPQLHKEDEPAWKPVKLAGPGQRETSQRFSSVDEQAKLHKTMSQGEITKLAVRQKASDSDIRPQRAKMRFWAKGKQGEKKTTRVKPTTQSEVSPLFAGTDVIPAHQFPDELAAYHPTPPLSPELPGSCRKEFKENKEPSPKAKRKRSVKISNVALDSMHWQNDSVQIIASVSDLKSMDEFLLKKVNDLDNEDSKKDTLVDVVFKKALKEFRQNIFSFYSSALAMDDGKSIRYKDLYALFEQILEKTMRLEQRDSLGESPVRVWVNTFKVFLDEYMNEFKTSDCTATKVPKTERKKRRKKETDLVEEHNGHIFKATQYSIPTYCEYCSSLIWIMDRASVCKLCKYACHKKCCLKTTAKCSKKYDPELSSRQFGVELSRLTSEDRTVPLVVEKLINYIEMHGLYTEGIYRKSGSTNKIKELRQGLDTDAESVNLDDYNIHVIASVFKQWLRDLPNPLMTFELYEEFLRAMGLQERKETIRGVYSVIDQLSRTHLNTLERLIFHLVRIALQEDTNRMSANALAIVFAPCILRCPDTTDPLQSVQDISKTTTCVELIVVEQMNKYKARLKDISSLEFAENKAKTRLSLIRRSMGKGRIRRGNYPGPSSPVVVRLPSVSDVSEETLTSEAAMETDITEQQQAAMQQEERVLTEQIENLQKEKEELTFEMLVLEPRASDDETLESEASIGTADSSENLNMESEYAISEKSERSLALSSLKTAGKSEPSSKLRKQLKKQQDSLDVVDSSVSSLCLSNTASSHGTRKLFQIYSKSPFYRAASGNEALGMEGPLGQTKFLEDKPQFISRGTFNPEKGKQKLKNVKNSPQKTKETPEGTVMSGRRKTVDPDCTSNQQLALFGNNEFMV
UniProt Q8N6N6: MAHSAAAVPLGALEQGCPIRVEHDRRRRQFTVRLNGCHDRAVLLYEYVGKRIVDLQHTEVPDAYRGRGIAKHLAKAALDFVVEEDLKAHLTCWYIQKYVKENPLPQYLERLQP
UniProt P60660, whole entry, looked up: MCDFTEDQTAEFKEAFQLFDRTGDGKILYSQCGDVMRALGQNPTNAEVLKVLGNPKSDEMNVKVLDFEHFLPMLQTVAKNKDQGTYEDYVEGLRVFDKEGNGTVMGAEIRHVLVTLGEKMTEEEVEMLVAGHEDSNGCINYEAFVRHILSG
UniProt Q9UK23: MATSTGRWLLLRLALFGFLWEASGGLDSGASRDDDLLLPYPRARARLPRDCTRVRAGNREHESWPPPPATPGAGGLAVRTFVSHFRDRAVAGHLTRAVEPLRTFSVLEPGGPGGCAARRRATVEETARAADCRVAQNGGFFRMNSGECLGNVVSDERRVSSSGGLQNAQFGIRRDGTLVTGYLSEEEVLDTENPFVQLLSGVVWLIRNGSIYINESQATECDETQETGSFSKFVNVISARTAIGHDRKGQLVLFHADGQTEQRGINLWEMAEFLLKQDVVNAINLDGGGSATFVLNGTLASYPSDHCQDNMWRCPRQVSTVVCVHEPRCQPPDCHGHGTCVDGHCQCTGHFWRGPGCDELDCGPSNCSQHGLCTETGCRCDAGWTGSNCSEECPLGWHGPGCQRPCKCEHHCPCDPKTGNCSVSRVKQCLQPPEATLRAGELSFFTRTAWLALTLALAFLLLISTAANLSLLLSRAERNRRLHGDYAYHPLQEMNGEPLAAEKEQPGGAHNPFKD
UniProt Q86UW6: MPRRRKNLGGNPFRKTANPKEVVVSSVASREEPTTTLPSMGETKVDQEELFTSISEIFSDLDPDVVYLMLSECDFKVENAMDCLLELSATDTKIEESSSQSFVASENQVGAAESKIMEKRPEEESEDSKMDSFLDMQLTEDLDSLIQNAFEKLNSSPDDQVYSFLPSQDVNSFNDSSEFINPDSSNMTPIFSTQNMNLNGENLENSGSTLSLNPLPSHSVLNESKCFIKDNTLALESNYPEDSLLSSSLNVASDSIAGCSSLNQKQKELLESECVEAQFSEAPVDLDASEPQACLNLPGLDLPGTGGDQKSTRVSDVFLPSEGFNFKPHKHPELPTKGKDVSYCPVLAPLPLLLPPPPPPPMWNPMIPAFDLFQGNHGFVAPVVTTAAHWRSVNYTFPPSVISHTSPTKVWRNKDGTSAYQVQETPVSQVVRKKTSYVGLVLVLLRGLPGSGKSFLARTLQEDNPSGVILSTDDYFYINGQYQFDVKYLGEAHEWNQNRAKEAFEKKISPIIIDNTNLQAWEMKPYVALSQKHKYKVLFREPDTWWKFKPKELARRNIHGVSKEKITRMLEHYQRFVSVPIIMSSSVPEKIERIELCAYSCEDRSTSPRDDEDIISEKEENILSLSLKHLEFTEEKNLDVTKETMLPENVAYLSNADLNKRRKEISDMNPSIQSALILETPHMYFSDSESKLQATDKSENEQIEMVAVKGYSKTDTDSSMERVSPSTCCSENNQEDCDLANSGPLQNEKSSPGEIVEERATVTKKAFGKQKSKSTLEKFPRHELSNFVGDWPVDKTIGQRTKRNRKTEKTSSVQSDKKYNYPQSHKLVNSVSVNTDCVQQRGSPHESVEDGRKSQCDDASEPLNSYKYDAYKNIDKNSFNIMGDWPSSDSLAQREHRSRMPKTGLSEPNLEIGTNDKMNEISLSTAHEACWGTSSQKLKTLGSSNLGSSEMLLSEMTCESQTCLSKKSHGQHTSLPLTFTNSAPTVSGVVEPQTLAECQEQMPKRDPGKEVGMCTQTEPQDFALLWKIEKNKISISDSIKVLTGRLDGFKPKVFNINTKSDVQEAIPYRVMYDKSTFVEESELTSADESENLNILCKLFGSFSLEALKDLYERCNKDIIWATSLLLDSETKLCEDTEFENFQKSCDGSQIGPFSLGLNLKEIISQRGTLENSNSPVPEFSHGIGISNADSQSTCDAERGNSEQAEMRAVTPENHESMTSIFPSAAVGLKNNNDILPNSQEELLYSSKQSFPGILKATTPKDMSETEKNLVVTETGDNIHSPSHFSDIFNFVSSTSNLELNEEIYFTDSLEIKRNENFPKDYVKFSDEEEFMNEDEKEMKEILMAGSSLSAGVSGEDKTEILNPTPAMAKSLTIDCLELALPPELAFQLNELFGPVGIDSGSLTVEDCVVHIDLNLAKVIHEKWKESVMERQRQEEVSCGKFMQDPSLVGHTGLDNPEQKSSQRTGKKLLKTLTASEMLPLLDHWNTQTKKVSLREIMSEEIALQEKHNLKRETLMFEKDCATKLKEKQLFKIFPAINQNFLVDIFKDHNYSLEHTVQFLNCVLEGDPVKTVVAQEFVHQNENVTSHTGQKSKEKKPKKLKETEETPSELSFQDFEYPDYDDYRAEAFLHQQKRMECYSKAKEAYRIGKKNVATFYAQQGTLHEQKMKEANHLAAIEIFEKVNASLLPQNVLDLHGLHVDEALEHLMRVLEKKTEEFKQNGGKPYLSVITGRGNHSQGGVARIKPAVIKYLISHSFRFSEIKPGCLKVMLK
NBDY, A0A0U1RRE5, UniProt A0A0U1RRE5, whole entry, looked up: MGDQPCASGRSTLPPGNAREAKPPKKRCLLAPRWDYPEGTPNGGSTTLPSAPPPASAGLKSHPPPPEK

How the values were obtained:
Assay in all cases: log2 fold change, soluble protein after heating vs DMSO (PISA); higher = thermal stabilisation; K562 lysate, 10 uM; active = over 0.2 and 3.5 SD of the protein, either way, in both replicates (recomputed)
vemurafenib = compound: CCCS(=O)(=O)Nc1ccc(F)c(C(=O)c2c[nH]c3ncc(-c4ccc(Cl)cc4)cc23)c1F [vemurafenib]
Method in brief: (§1)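 Values give the log-two fold change in thermal stability against solvent controls, from duplicates. Crude K562 extract at 1 mg/mL protein, made by dounce homogenisation in PBS pH 7.4 with 1 mM MgCl2, was treated with 10 μM compound for 30 min. After 3 min heating across 48°C-58°C, aliquots were pooled, adjusted to 0.5% NP-40 at 4°C and centrifuged at 21,000xg for 90 min. The supernatant was measured by TMTpro 16plex LC-MS/MS with channel sums equalised.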

[1] = compound: CCCS(=O)(=O)Nc1ccc(F)c(C(=O)c2c[nH]c3ncc(Cl)cc23)c1F
Method in brief: as §1

barasertib = compound: CCN(CCCOc1ccc2c(Nc3cc(CC(=O)Nc4cccc(F)c4)[nH]n3)ncnc2c1)CCOP(=O)(O)O [barasertib]
Method in brief: as §1

[2] = compound: CC[C@@H]1C(=O)N(C)c2cnc(Nc3ccc(C(=O)NC4CCN(C)CC4)cc3OC)nc2N1C1CCCC1
Method in brief: as §1

volasertib = compound: CC[C@@H]1C(=O)N(C)c2cnc(Nc3ccc(C(=O)N[C@H]4CC[C@H](N5CCN(CC6CC6)CC5)CC4)cc3OC)nc2N1C(C)C [volasertib]
Method in brief: as §1

[3] = compound: CCn1c(C(=O)N(C2CC2)C2CC2)cc2c3c(ncn3C)c(Nc3cc(C)n(C)n3)nc21
Method in brief: as §1

[4] = compound: CCn1cc(-c2ccnc3[nH]c(-c4cccc(CN(C)C)c4)cc23)c(-c2ccc(NC(=O)N(C)C)cc2)n1
Method in brief: as §1

[5] = compound: CN1CCC(CNc2ccc3ncc(-c4cccc(OC(F)(F)F)c4)n3n2)CC1
Method in brief: as §1

saracatinib = compound: CN1CCN(CCOc2cc(OC3CCOCC3)c3c(Nc4c(Cl)ccc5c4OCO5)ncnc3c2)CC1 [saracatinib]
Method in brief: as §1

sotrastaurin = compound: CN1CCN(c2nc(C3=C(c4c[nH]c5ccccc45)C(=O)NC3=O)c3ccccc3n2)CC1 [sotrastaurin]
Method in brief: as §1

alvocidib = compound: CN1CC[C@H](c2c(O)cc(O)c3c(=O)cc(-c4ccccc4Cl)oc23)[C@H](O)C1 [alvocidib]
Method in brief: as §1

Tubastatin A = compound: CN1CCc2c(c3ccccc3n2Cc2ccc(C(=O)NO)cc2)C1 [Tubastatin A]
Method in brief: as §1

[6] = compound: CNC(=O)C1=CC=CC=C1NC2=NC(=NC=C2Cl)NC3=C(C=C(C=C3)N4CCOCC4)OC
Method in brief: as §1

defactinib = compound: CNC(=O)c1ccc(Nc2ncc(C(F)(F)F)c(NCc3nccnc3N(C)S(C)(=O)=O)n2)cc1 [defactinib]
Method in brief: as §1

[7] = compound: CNc1nc(-c2ccc3c(N)n[nH]c3c2)cc(N2C[C@@H](C(=O)NC3CCCCC3)CC[C@H]2C)n1
Method in brief: as §1

encorafenib = compound: COC(=O)N[C@@H](C)CNc1nccc(-c2cn(C(C)C)nc2-c2cc(Cl)cc(NS(C)(=O)=O)c2F)n1 [encorafenib]
Method in brief: as §1

[8] = compound: COC(=O)[C@H](CCSC)NC(=O)C1=C(C=C(C=C1)NC[C@H](CS)N)C2=CC=CC=C2
Method in brief: as §1

alisertib = compound: COc1cc(Nc2ncc3c(n2)-c2ccc(Cl)cc2C(c2c(F)cccc2OC)=NC3)ccc1C(=O)O [alisertib]
Method in brief: as §1

[9] = compound: COc1cc2nc(-c3cc(F)ccc3O)nc(N[C@@H]3CNC[C@H]3C(C)(C)O)c2cc1OC
Method in brief: as §1

gefitinib = compound: COc1cc2ncnc(Nc3ccc(F)c(Cl)c3)c2cc1OCCCN1CCOCC1 [gefitinib]
Method in brief: as §1

Target	log2 fold change (vemurafenib)	log2 fold change [1]	log2 fold change (barasertib)	log2 fold change [2]	log2 fold change (volasertib)	log2 fold change [3]	log2 fold change [4]	log2 fold change [5]	log2 fold change (saracatinib)	log2 fold change (sotrastaurin)	log2 fold change (alvocidib)	log2 fold change (Tubastatin A)	log2 fold change [6]	log2 fold change (defactinib)	log2 fold change [7]	log2 fold change (encorafenib)	log2 fold change [8]	log2 fold change (alisertib)	log2 fold change [9]	log2 fold change (gefitinib)
MYSM1 (UniProt Q5VVJ2)	inactive: -0.007	inactive: 0.04	inactive: 0.042	inactive: -0.062	inactive: -0.05	inactive: 0.018	inactive: -0.045	inactive: 0.039	inactive: -0.031	inactive: 0.043	inactive: -0.035	inactive: -0.007	inactive: 0.01	inactive: 0.023	inactive: 0.073	inactive: 0.034	inactive: 0.074	inactive: -0.045	inactive: 0.007	inactive: 0.058
MYH9 (UniProt P35579)	inactive: -0.009	inactive: 0.042	inactive: -0.002	inactive: 0.006	inactive: -0.013	inactive: -0.007	inactive: 0.013	inactive: -0.006	inactive: 0.019	inactive: 0.007	inactive: -0.005	inactive: 0.026	inactive: -0.017	inactive: -0.01	inactive: 0.032	inactive: -0.032	inactive: 0.025	inactive: -0.009	inactive: 0.017	inactive: -0.029
NCOA7 (UniProt Q8NI08)	inactive: -0.001	inactive: 0.036	inactive: -0.015	inactive: 0.018	inactive: -0.031	inactive: -0.007	inactive: 0.029	inactive: -0.044	inactive: 0.014	inactive: 0.005	inactive: -0.012	inactive: -0.051	inactive: 0.049	inactive: -0.022	inactive: 0.066	inactive: -0.003	inactive: 0.001	inactive: 0.008	inactive: -0.004	inactive: 0.006
NAA11 (UniProt Q9BSU3)	inactive: -0.033	inactive: 0.005	inactive: -0.083	inactive: 0.017	inactive: -0.006	inactive: -0.025	inactive: 0.081	inactive: -0.032	inactive: 0.054	inactive: 0.038	inactive: -0.03	inactive: -0.059	inactive: 0.061	inactive: 0.026	inactive: 0.191	inactive: 0.003	inactive: -0.007	inactive: 0.037	inactive: -0.025	inactive: -0.028
MZT2B (UniProt Q6NZ67)	inactive: 0.011	inactive: 0.077	inactive: 0.19	inactive: 0.035	inactive: 0.103	inactive: 0.005	inactive: -0.031	inactive: 0.094		inactive: -0.004	inactive: -0.037	inactive: 0.001	inactive: 0.007	inactive: 0.14		inactive: -0.035	inactive: -0.145	inactive: -0.031	inactive: -0.089	inactive: 0.032
NAA16 (UniProt Q6N069)	active: 0.902	inactive: -0.048	inactive: 0.246	inactive: -0.049	inactive: -0.078	inactive: 0.057			inactive: -0.012			inactive: -0.097		inactive: 0.086	inactive: -0.05	inactive: 0.062	inactive: 0.169	inactive: 0.11	inactive: -0.03	inactive: 0.142
MYL6 (UniProt G3V1V0)	inactive: 0.059	inactive: 0.035		inactive: 0.042	inactive: 0.052	inactive: -0.162	inactive: -0.054	inactive: -0.182	inactive: -0.018	inactive: 0.057	inactive: -0.009	inactive: 0.073	inactive: -0.005	inactive: -0.013	inactive: 0.02	inactive: 0.162	inactive: -0.161	inactive: 0.023	inactive: 0.001	inactive: -0.169
MYO9A isoform 4 (UniProt B2RTY4)	active: 0.248	inactive: 0.023	inactive: 0.053		inactive: -0.028	inactive: -0.019	inactive: -0.021	inactive: 0.002	inactive: -0.068	inactive: 0.093	inactive: 0.034	inactive: -0.077	inactive: -0.013	inactive: -0.026	inactive: 0.015			inactive: -0.035	inactive: 0.04	inactive: 0.009
NATD1 (UniProt Q8N6N6)	inactive: -0.179		inactive: 0.045	inactive: -0.037		inactive: 0.003	inactive: 0.025	inactive: -0.029	inactive: 0.019	inactive: -0.02	inactive: -0.023	inactive: 0.084	inactive: 0.027	inactive: -0.074	inactive: 0.031	inactive: 0.042	inactive: -0.27	inactive: 0.005		inactive: 0.02
MYL6 isoform 2 (UniProt P60660)	inactive: -0.309	inactive: 0.07		inactive: -0.05	inactive: -0.046	inactive: -0.005	inactive: -0.164	inactive: -0.027	inactive: -0.012	inactive: -0.001	inactive: 0.008	inactive: 0.062	inactive: 0.075	inactive: -0.221	inactive: 0.037	inactive: -0.082	inactive: -0.158	inactive: 0	inactive: -0.021	inactive: -0.07
NACA4P (UniProt Q9BZK3)	inactive: -0.011	inactive: -0.009	inactive: -0.148	inactive: 0.085	inactive: -0.019	inactive: -0.213			inactive: 0.035	inactive: 0.009		inactive: 0.105	inactive: 0.003	inactive: 0.02	inactive: 0.074	inactive: 0.063	inactive: -0.111	inactive: -0.011	inactive: 0.034	inactive: -0.003
NAGPA (UniProt Q9UK23)	inactive: -0.018	inactive: 0.101	inactive: 0.038		inactive: 0.003		inactive: 0.188	inactive: -0.034	inactive: -0.11		inactive: 0.127		inactive: 0.027	inactive: -0.095	inactive: 0			inactive: 0.031	inactive: 0.156	inactive: -0.162
NCALD (UniProt P61601)	inactive: 0.014	inactive: -0.001	inactive: 0.016	inactive: 0.008	inactive: 0.044	inactive: -0.014	inactive: -0.05	inactive: 0.039	inactive: 0.002	inactive: 0.035	inactive: -0.034	inactive: 0.047	inactive: 0.004	inactive: 0.036	inactive: -0.131	inactive: 0.011	inactive: -0.063	inactive: -0.011	inactive: 0.024	inactive: -0.002
NCOA1 isoform 2 (UniProt Q15788)	inactive: 0.048	inactive: -0.123			inactive: -0.061		inactive: 0.039	inactive: -0.1	inactive: 0.032		inactive: -0.041		inactive: 0.052	inactive: 0.084	inactive: 0.02				inactive: 0.453	
N4BP2 (UniProt Q86UW6)	inactive: -0.001	inactive: 0.052	inactive: -0.018	inactive: 0.029	inactive: -0.014	inactive: 0	active: -0.336	inactive: 0.029	inactive: 0.018	inactive: 0.05	inactive: 0.063	inactive: -0.17	inactive: 0.052	inactive: 0.021	inactive: -0.004	inactive: 0.06	inactive: 0.003	inactive: 0.016	inactive: 0	inactive: -0.005
NARF (UniProt Q9UHQ1)	inactive: 0.035	inactive: 0.035	inactive: 0.028	inactive: 0.011	inactive: 0.135	inactive: -0.025	inactive: -0.055	inactive: 0.014	inactive: 0.023	inactive: 0.049	inactive: 0.001	inactive: 0.011	inactive: 0.031	inactive: -0.015	inactive: -0.014	inactive: 0.047	inactive: 0.003	inactive: -0.021	inactive: -0.019	inactive: -0.007
NAA38 isoform 2 (UniProt Q9BRA0)	inactive: 0.049	inactive: 0.014	inactive: 0.09	inactive: -0.012	inactive: 0.025	inactive: 0.04	active: -0.461	inactive: 0.201	inactive: 0.042	inactive: -0.079	inactive: -0.143	inactive: -0.005	inactive: 0.01	inactive: 0.013	inactive: 0.03	inactive: -0.022	inactive: 0.001	inactive: 0.05	inactive: 0.022	inactive: -0.017
NBDY, A0A0U1RRE5	inactive: -0.117	inactive: -0.092	inactive: 0.226		inactive: 0.167	inactive: 0.014	inactive: 0.049	inactive: -0.116	inactive: -0.055	inactive: -0.189	inactive: 0.014	inactive: 0.063	inactive: -0.063	inactive: 0.193	inactive: 0.161			inactive: 0.105	inactive: 0.061	inactive: -0.195

Reformatted bar-delimited: part of the list above
Target | log2 fold change (vemurafenib) | log2 fold change [1] | log2 fold change (barasertib) | log2 fold change [2] | log2 fold change (volasertib) | log2 fold change [3] | log2 fold change [4] | log2 fold change [5] | log2 fold change (saracatinib) | log2 fold change (sotrastaurin) | log2 fold change (alvocidib) | log2 fold change (Tubastatin A) | log2 fold change [6] | log2 fold change (defactinib) | log2 fold change [7] | log2 fold change (encorafenib) | log2 fold change [8] | log2 fold change (alisertib) | log2 fold change [9] | log2 fold change (gefitinib)
MYL6 (UniProt G3V1V0) | inactive: 0.059 | inactive: 0.035 |  | inactive: 0.042 | inactive: 0.052 | inactive: -0.162 | inactive: -0.054 | inactive: -0.182 | inactive: -0.018 | inactive: 0.057 | inactive: -0.009 | inactive: 0.073 | inactive: -0.005 | inactive: -0.013 | inactive: 0.02 | inactive: 0.162 | inactive: -0.161 | inactive: 0.023 | inactive: 0.001 | inactive: -0.169
MYO9A isoform 4 (UniProt B2RTY4) | active: 0.248 | inactive: 0.023 | inactive: 0.053 |  | inactive: -0.028 | inactive: -0.019 | inactive: -0.021 | inactive: 0.002 | inactive: -0.068 | inactive: 0.093 | inactive: 0.034 | inactive: -0.077 | inactive: -0.013 | inactive: -0.026 | inactive: 0.015 |  |  | inactive: -0.035 | inactive: 0.04 | inactive: 0.009
